Article PMC2362126

Amino acid sequences for entries named in this document (tags omitted).
UniProt P34149: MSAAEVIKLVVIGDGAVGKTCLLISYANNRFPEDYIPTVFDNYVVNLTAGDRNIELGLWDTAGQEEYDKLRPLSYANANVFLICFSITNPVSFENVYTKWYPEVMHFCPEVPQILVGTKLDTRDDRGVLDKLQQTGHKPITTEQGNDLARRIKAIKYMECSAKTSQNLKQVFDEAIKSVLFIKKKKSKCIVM
UniProt P19073: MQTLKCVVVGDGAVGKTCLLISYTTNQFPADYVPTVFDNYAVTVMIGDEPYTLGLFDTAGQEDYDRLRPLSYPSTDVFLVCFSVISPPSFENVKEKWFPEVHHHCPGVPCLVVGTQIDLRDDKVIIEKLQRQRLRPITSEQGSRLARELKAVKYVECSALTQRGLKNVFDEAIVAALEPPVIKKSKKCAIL
UniProt P61586: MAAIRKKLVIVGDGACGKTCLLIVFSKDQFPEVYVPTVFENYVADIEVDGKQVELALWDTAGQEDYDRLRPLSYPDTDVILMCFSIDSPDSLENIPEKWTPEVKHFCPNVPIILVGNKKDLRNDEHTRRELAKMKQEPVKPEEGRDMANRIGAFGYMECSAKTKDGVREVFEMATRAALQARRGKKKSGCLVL
UniProt P60953: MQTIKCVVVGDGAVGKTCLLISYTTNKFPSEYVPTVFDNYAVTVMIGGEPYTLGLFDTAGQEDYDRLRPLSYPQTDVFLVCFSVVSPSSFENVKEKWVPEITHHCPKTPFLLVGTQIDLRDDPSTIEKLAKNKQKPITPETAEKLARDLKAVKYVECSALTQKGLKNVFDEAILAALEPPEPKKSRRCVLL
UniProt O96390: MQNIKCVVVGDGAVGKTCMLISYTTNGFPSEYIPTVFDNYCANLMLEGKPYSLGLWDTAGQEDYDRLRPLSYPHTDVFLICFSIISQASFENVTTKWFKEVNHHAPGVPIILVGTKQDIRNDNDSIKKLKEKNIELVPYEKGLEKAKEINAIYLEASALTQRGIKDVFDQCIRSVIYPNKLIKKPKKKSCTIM
UniProt P34148: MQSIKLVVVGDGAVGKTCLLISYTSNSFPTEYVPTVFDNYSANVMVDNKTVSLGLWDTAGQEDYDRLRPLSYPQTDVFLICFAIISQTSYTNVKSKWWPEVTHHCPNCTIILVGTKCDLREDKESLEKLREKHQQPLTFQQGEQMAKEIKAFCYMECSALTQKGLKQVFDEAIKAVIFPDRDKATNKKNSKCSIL

Columns and labels:
Test in all cases: two-hybrid; Matchmaker system (Clontech), Y190 yeast; RhoGDIs in pGADT7 or pACT2, Rho GTPases in pGBKT7 or pAS2-1; growth on -Trp/-Leu/-His/+3AT and colony-lift β-galactosidase assays
[1] = target: D. discoideum RacC, two-hybrid fusion in pAS2-1 (D. discoideum) (UniProt P34149)
[2] = target: S. cerevisiae Cdc42, two-hybrid fusion in pGBKT7 (S. cerevisiae) (UniProt P19073)
[3] = target: human RhoA, two-hybrid fusion in pAS2-1 (human) (UniProt P61586)
[4] = target: human Cdc42, two-hybrid fusion in pAS2-1 (human) (UniProt P60953)
[5] = target: D. discoideum RacF1, two-hybrid fusion in pAS2-1 (D. discoideum) (UniProt O96390)
[6] = target: T1, D. discoideum RacE, two-hybrid fusion in pAS2-1 (D. discoideum) (UniProt Q23862)
T1 sequence: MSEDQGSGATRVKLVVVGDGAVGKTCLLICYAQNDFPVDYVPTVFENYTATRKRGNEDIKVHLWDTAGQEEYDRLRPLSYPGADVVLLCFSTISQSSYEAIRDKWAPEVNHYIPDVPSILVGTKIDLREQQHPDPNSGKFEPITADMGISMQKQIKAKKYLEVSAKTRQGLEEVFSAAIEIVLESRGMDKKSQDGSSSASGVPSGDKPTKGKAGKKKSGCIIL

[7] = target: D. discoideum RacB, two-hybrid fusion in pAS2-1 (D. discoideum) (UniProt P34148)

For “Tuber borchii RhoGDI (TbRhoGDI), two-hybrid fusion in pGADT7 (from UniProt A8TLV6)”, the binding [1] was “no binding”, the binding [2] was “no binding” and the binding [3] was “no binding”. For the same substance, the binding [4] was “binds”, the binding [5] was “no binding” and the binding [6] was “no binding”. The binding [7] was “no binding”.

Results are given in words; binding and its absence hold for the method and conditions named. For some of these results: Binding calls can cover weak binding; strength is not graded here. For some of these results: Tags and fused reporters may be left off the sequences shown.
